Assay results published in publication PMC5225440.
No constants are given. Whether binding was seen depends on the method and setting. In cells and extracts the contact can be indirect. These calls come from enrichment with a bait or labelling near it, and not all partners need be listed. Each block holds one molecule with its values, some of them ahead of it.

The chains behind the UniProt entries cited, without tags or fusion partners. Where a name states a change or a piece, a line headed by the entry shows the natural chain unless it says otherwise. A line that says so, or that is headed by a name, gives the form on record, which may keep a tag or linker.
UniProt O14974: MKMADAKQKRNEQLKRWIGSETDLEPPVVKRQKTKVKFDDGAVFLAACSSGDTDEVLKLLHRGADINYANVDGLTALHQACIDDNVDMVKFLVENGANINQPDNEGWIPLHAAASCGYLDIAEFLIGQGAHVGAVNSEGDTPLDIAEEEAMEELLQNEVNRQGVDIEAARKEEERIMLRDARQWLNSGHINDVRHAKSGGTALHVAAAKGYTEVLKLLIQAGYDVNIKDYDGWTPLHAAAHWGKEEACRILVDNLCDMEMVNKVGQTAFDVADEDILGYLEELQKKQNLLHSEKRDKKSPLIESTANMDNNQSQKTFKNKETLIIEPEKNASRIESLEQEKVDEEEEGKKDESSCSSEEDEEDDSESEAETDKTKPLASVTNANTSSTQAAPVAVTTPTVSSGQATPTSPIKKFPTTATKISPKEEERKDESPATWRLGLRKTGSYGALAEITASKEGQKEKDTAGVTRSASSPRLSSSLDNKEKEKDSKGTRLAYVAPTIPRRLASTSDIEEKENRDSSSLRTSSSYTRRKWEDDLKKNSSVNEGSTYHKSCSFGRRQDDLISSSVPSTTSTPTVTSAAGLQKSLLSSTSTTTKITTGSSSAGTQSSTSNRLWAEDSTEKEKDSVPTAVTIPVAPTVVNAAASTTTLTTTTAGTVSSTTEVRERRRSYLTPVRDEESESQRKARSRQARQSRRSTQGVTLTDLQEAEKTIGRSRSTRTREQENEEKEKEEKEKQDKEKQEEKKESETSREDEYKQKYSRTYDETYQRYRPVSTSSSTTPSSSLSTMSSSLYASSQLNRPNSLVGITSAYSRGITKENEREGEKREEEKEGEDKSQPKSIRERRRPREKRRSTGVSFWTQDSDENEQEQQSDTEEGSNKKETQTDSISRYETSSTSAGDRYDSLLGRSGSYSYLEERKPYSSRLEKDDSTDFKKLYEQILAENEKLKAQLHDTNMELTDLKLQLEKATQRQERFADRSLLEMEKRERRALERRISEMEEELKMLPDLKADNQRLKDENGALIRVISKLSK
UniProt Q99459: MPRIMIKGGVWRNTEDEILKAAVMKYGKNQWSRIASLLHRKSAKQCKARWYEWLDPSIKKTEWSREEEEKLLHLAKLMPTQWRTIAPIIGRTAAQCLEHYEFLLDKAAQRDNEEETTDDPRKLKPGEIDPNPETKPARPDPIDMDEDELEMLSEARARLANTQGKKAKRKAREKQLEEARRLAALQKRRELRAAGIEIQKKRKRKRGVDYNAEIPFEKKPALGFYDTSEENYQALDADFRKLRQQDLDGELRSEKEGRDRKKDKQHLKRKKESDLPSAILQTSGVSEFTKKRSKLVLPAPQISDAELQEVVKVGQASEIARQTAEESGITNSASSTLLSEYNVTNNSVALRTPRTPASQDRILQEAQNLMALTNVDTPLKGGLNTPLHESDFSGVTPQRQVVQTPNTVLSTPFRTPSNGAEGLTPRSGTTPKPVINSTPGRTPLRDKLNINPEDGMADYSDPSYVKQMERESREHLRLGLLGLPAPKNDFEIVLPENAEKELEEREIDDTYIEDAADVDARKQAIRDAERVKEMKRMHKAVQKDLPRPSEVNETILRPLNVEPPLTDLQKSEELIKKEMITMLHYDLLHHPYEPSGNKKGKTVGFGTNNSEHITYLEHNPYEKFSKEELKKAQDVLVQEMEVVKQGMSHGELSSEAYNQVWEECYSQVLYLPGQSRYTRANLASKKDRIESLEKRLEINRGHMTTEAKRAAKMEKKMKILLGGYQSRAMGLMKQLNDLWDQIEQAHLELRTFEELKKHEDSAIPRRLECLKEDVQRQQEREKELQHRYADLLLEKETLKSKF
UniProt Q01844: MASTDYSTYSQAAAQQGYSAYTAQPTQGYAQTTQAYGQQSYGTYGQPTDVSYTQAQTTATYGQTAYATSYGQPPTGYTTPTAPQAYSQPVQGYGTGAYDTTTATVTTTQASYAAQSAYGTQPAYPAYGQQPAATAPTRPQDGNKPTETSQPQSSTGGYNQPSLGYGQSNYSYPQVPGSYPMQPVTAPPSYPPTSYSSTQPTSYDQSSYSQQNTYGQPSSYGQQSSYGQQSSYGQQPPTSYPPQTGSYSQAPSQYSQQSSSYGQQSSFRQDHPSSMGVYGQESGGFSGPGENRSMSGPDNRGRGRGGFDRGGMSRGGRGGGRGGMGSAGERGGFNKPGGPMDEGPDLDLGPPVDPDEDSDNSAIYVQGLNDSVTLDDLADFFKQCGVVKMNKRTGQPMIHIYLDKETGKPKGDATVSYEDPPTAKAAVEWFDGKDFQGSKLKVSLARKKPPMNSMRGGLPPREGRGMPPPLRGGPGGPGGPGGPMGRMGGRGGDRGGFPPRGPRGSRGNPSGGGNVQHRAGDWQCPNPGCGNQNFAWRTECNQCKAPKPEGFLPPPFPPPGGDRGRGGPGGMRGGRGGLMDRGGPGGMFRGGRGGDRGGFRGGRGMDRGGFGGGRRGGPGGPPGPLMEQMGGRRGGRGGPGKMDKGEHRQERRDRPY
UniProt P27694: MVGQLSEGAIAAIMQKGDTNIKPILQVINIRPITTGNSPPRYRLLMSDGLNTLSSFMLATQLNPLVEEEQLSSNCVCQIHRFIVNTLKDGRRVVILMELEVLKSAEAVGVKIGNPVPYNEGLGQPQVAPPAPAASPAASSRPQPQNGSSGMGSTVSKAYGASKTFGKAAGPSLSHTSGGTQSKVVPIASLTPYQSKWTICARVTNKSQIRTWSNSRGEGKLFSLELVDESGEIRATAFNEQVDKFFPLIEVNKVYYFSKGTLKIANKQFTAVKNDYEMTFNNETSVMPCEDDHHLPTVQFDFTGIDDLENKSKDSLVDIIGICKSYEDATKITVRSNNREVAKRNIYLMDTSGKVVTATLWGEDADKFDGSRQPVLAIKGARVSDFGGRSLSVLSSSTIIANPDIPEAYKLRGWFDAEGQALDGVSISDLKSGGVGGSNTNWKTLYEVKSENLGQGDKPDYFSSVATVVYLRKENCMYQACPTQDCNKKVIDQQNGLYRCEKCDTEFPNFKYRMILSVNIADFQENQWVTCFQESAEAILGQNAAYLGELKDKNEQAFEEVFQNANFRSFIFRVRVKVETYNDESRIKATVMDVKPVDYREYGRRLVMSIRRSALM
Heterogeneous nuclear ribonucleoprotein A2/B1 isoform A2 (P22626-2, form named): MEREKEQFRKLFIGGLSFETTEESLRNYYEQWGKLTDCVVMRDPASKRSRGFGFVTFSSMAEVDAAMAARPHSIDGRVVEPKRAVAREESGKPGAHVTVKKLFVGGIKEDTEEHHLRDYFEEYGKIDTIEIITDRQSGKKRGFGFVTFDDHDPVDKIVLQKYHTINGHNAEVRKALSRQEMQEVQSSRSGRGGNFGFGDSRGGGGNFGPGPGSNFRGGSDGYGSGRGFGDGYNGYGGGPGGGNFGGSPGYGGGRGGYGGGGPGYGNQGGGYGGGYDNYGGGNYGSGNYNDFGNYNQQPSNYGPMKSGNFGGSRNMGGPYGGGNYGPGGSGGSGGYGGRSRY
UniProt P52732: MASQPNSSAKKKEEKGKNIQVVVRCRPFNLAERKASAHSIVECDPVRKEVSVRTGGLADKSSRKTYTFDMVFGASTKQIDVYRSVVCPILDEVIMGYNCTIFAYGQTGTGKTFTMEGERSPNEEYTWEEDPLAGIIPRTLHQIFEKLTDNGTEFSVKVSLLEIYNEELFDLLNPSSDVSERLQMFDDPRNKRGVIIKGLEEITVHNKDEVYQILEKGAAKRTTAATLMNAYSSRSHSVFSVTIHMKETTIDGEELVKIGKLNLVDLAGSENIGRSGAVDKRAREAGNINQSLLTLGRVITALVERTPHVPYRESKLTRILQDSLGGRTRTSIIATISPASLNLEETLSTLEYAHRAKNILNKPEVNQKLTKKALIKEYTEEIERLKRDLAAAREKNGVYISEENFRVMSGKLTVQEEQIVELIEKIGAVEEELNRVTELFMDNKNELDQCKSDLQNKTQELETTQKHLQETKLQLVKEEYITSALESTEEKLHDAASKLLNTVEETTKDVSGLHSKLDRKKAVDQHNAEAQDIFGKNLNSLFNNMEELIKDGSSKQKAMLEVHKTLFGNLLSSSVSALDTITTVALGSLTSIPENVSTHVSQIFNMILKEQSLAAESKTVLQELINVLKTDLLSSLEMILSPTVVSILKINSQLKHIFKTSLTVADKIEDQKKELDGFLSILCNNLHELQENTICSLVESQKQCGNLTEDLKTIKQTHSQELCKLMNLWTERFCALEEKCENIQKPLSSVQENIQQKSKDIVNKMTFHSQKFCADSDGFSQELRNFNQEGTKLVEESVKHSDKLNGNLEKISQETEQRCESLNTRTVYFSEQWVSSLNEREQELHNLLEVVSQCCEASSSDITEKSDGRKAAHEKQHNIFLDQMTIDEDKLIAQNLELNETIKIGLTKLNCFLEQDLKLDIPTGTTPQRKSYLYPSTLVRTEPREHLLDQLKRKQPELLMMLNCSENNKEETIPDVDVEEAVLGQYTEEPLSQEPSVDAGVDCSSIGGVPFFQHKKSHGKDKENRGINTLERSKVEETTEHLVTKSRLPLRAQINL
UniProt O14744: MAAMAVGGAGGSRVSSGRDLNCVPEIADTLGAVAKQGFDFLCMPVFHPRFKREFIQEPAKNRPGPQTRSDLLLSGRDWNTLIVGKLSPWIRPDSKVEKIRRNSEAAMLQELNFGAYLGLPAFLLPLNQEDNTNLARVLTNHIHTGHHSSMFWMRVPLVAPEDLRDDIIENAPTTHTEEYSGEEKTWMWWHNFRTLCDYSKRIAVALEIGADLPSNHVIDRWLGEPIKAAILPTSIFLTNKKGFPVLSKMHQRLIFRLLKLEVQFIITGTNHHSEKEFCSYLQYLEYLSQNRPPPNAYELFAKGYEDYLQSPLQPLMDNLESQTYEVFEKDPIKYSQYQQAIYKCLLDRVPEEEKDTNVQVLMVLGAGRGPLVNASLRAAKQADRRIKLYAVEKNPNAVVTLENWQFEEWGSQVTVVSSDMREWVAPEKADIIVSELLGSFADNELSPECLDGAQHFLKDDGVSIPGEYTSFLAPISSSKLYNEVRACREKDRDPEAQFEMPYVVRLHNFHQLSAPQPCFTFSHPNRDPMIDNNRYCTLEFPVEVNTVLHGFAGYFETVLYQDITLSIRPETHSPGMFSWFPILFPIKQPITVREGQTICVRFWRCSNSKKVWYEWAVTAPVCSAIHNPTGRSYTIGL

Molecular target: Flag-tagged myosin phosphatase target subunit 1 (FT-MYPT1) (UniProt O14974)
Assay: affinity purification with mass spectrometry; FT-MYPT1 bound to anti-Flag M2 affinity gel, incubated with precleared HepG2 nuclear extract for 2 hr at 4 °C, washed with TBS, eluted with 300 μg/ml Flag-peptide, SDS-PAGE, silver stain, in-gel trypsin digestion, LC-MS/MS; Flag-peptide as control; only the target purified

Molecule: CDC5-like protein (from UniProt Q99459 1-802)
binding: binds

Molecule: Ewing sarcoma breakpoint region 1 isoform 2 (from UniProt Q01844 1-656)
binding: binds

Molecule: Replication protein A1 (from UniProt P27694 1-616)
binding: binds

More lines, now with the values ahead:

binding: binds
Molecule: Heterogeneous nuclear ribonucleoprotein A2/B1 isoform A2 (from UniProt P22626-2 1-341)

binding: binds
Molecule: Kinesin family member 11 (from UniProt P52732 1-1056)

binding: binds
Molecule: Protein arginine methyltransferase 5 (PRMT5), endogenous in HepG2 (from UniProt O14744 1-637)

binding: binds
B1: Protein phosphatase 1B isoform 1 (protein, UniProt O75688 1-479)
chain: MGAFLDKPKTEKHNAHGAGNGLRYGLSSMQGWRVEMEDAHTAVVGIPHGLEDWSFFAVYDGHAGSRVANYCSTHLLEHITTNEDFRAAGKSGSALELSVENVKNGIRTGFLKIDEYMRNFSDLRNGMDRSGSTAVGVMISPKHIYFINCGDSRAVLYRNGQVCFSTQDHKPCNPREKERIQNAGGSVMIQRVNGSLAVSRALGDYDYKCVDGKGPTEQLVSPEPEVYEILRAEEDEFIILACDGIWDVMSNEELCEYVKSRLEVSDDLENVCNWVVDTCLHKGSRDNMSIVLVCFSNAPKVSDEAVKKDSELDKHLESRVEEIMEKSGEEGMPDLAHVMRILSAENIPNLPPGGGLAGKRNVIEAVYSRLNPHRESDGASDEAEESGSQGKLVEALRQMRINHRGNYRQLLEEMLTSYRLAKVEGEESPAEPAATATSSNSDAGNPVTMQESHTESESGLAELDSSNEDAGTKMSGEKI

binding: binds
B2: Mitogen-activated protein kinase kinase kinase 7 isoform A (protein, UniProt O43318-2 1-579)
chain: MSTASAASSSSSSSAGEMIEAPSQVLNFEEIDYKEIEVEEVVGRGAFGVVCKAKWRAKDVAIKQIESESERKAFIVELRQLSRVNHPNIVKLYGACLNPVCLVMEYAEGGSLYNVLHGAEPLPYYTAAHAMSWCLQCSQGVAYLHSMQPKALIHRDLKPPNLLLVAGGTVLKICDFGTACDIQTHMTNNKGSAAWMAPEVFEGSNYSEKCDVFSWGIILWEVITRRKPFDEIGGPAFRIMWAVHNGTRPPLIKNLPKPIESLMTRCWSKDPSQRPSMEEIVKIMTHLMRYFPGADEPLQYPCQYSDEGQSNSATSTGSFMDIASTNTSNKSDTNMEQVPATNDTIKRLESKLLKNQAKQQSESGRLSLGASRGSSVESLPPTSEGKRMSADMSEIEARIAATTGNGQPRRRSIQDLTVTGTEPGQVSSRSSSPSVRMITTSGPTSEKPTRSHPWTPDDSTDTNGSDNSIPMAYLTLDHQLQPLAPCPNSKESMAVFEQHCKMAQEYMKVQTEIALLLQRKQELVAELDQDEKDQQNTSRLVQEHKKLLDENKSLSTYYQQCKKQLEVIRSQQQKRQGTS
